Test results from US20230094176A1, “COMPOUNDS AND METHODS FOR IMPROVING IMPAIRED ENDOGENOUS FIBRINOLYSIS USING HISTONE DEACETYLASE INHIBITORS” (Cereno Scientific AB, priority 2011, published 2023).
For at least one compound, name, drawing or mass did not settle the structure.

What was measured:
[1] = system: t-PA production in endothelial cells; details: Arts et al 1995; cited from earlier work
[2] = system: patients with a recent major atherothrombotic cardiovascular event; assay: Clinical outcome study in high-risk patients for prevention of recurrent events; assay type: in vivo, human
Experimental: The first clinical outcome study is performed in high-risk patients who have experienced a recent major atherothrombotic cardiovascular event (myocardial infarction or ischemic stroke) to investigate the preventive effect of Vorinostat treatment on the risk for recurrent events. The annual risk for a recurrent atherothrombotic event in the investigated population is estimated to approximately 7%. Patients are randomized in a parallel study design to receive double-blind oral treatment with 10 mg Vorinostat or placebo daily, in addition to optimal conventional treatment. The event rate is monitored by Kaplan-Meyer statistics. The primary efficacy endpoint is the composite measure of either mortality, or non-fatal myocardial infarction or ischemic stroke. The study is event-driven to a total of 180 events in the placebo group.
The first clinical outcome study is performed in high-risk patients who have experienced a recent major atherothrombotic cardiovascular event (myocardial infarction or ischemic stroke) to investigate the preventive effect of VPA treatment on the risk for recurrent events. […] The event rate is monitored by Kaplan-Meyer statistics. […]

[3] = system: high-risk patients with recent deep vein thrombosis or pulmonary embolus; assay: Clinical outcome study for prevention of recurrent venous thromboembolic events; assay type: in vivo, human; details: daily oral dose: Vorinostat 10 mg, Givinostat 2 mg, Panobinostat 0.5 mg, PCI-24781 2 mg, JNJ-26481585 0.2 mg, Mocetinostat 2 mg, SB939 0.4 mg, CXD101 10 mg; Belinostat example prints 10 mg Vorinostat
Experimental: This study is performed in high-risk patients who have experienced a recent deep vein thrombosis or circulatory stable pulmonary embolus to investigate the preventive effect of Vorinostat treatment on the risk for recurrent venous thrombotic events. Patients with a cancer diagnosis who presents with a first episode of a proximal deep venous thrombosis without unstable pulmonary embolism will be included. The patients will receive conventional treatment (i.e warfarin for 3-6 months) and thereafter included in the study. Patients are randomized in a parallel study design to receive double-blind oral treatment with 10 mg Vorinostat or placebo daily, in addition to optimal conventional treatment. The event rate is monitored by Kaplan-Meyer statistics. The primary efficacy endpoint is the composite measure of either mortality, or recurrent deep venous thrombosis or pulmonary embolism. The study is event-driven to a total of 180 events in the placebo group. […] Thus, this study confirms the clinical efficacy and feasibility of using Vorinostat for secondary prevention of venous thromboembolism.
This study is performed in high-risk patients who have experienced a recent deep vein thrombosis or circulatory stable pulmonary embolus to investigate the preventive effect of VPA treatment on the risk for recurrent venous thrombotic events. […] The event rate is monitored by Kaplan-Meyer statistics. […]

[4] = system: healthy subjects with an increased risk for atherothrombotic cardiovascular events; assay: Primary preventive clinical outcome study; assay type: in vivo, human; details: daily oral dose: Vorinostat 10 mg, Belinostat 65 mg, Givinostat 2 mg, Panobinostat 0.5 mg, PCI-24781 2 mg, JNJ-26481585 0.2 mg, Mocetinostat 2 mg, SB939 0.4 mg, CXD101 10 mg
Experimental: The third outcome study investigates the primary preventive effect of Vorinostat in healthy subjects with an increased risk for atherothrombotic cardiovascular events i.e. cigarette smoking, abnormal blood lipid levels, hypertension, diabetes, abdominal obesity, low-grade inflammation and/or atherosclerosis. Subjects are randomized to double-blind oral treatment with 10 mg Vorinostat or placebo daily. The risk of a primary atherothrombotic event is followed annually. The primary composite efficacy endpoint is mortality, or non-fatal myocardial infarction or ischemic stroke. The study is event-driven to a total of 180 events in the placebo group.
The third outcome study investigates the primary preventive effect of VPA in healthy subjects with an increased risk for atherothrombotic cardiovascular events due to low-grade inflammation. The inflammatory activation is clinically defined as an elevated serum level of high-sensitivity C-reactive protein (hs-CRP) >3 mg/L. Subjects are randomized to double-blind oral treatment with 100 mg valproic acid or placebo twice daily. The risk of a primary atherothrombotic event is followed annually. The primary composite efficacy endpoint is mortality, or non-fatal myocardial infarction or ischemic stroke. The study is event-driven to a total of 180 events in the placebo group. In this population the annual event rate is reduced by 30% from 1.5 to 1%.

[5] = system: local release of t-PA from the endothelium; assay: Intermediate endpoint study: in vivo t-PA release in man (perfused-forearm model, Substance P); design: species or system human; details: patients with stable angina pectoris, 2 weeks; daily oral dose: Vorinostat 10 mg, Belinostat 65 mg, Givinostat 2 mg, Panobinostat 0.5 mg, PCI-24781 2 mg, JNJ-26481585 0.2 mg, Mocetinostat 2 mg, SB939 0.4 mg, CXD101 10 mg
Experimental: The study comprises 16 patients with stable angina pectoris. Patients are investigated before and after oral treatment with 10 mg Vorinostat (Zolinza®, Merck & Co., Inc, NJ, USA) daily for 2 weeks. The study has a randomized, cross-over design and t-PA release capacity is investigated before and after treatment, with each individual serving as his/her own control
The capacity for t-PA release is investigated in the perfused-forearm model that we have developed, which is the only method that permits a direct measurement of the local release of t-PA from the endothelium (Hrafnkelsdottir, T., et al. Lancet 352, 1597-1598 (1998), Wall, U., et al. Blood 91, 529-537 (1998)). Since t-PA has a rapid hepatic clearance, it is impossible to infer endothelial release rates from plasma levels obtained from standard venous samples. With the invasive model, however, net forearm t-PA release rates are calculated from arterio-venous concentration gradients of t-PA after correction for forearm plasma flow. Acute t-PA release responses are induced by intra-arterial infusions of Substance P (Bachem, Bubendorf, Switzerland), and the amount and protein secretion profile is used as a measure of t-PA release capacity. […]
With the invasive model, however, net forearm t-PA release rates are calculated from arterio-venous concentration gradients of t-PA after correction for forearm plasma flow. […]

[6] = system: TNF-alpha suppressed t-PA production in HUVECs; assay: Counter-acting TNF-alpha (0.1 ng/ml) suppression of t-PA in HUVEC; assay type: cell-based, human; details: TNF-alpha 0.1 ng/ml 48 h, compound last 24 h, present-tense Examples 12-18
Experimental: Human umbilical vein endothelial cells (HUVECs) were prepared and cultured as described in Example 1. Confluent HUVECs were exposed to low concentrations of TNF-alpha (0.1 ng/ml) (Sigma-Aldrich) for 24 h. Thereafter, medium was replaced by fresh EGM-2 containing TNF-alpha and low concentrations of belinostat (10 nM to 300 nM) and incubated for 24 h. After 24 h, cells and conditioned media were harvested. Total RNA was prepared and RNA and secreted protein quantified as in Example 1.
We have previously shown that proinflammatory cytokines e.g. TNF-alpha and IL-1b suppress t-PA production in endothelial cells. We then investigated if VPA could reverse a TNF-alpha suppressed t-PA response. […]
Total RNA was prepared using RNeasy Mini RNA kit (Qiagen, Hilden, Germany) and genomic DNA was removed using RNase-free DNase I set (Qiagen). Levels of t-PA mRNA were analyzed with real-time RT-PCR, performed on an Applied Biosystems 7500 Fast Real-Time PCR System using cDNA and Taqman reagents obtained from Applied Biosystems (Foster City, Calif., USA). […]
Endothelial cells in culture are known to constitutively secrete the majority of synthesized t-PA making conditioned media a suitable source for quantification of t-PA protein. […]

[7] = system: t-PA mRNA expression in human umbilical vein endothelial cells (HUVECs); assay: In vitro dose response: t-PA mRNA (and protein) expression in HUVEC after 24 h; assay type: cell-based; details: present-tense Examples 3-9
Experimental: Human umbilical vein endothelial cells (HUVECs) were prepared by collagenase treatment of fresh umbilical cords (Jaffe, E. A., et al. J Clin Invest 52, 2745-2756 (1973)) obtained from the maternity ward of the Sahlgrenska University hospital, Gotheburg, Sweden. Cells were cultured in EGM-2 medium (Lonza, Basel, Switzerland) and all experiments were performed in passage 1 of subcultivation. Confluent HUVECs were exposed to 10 nM-10 μM of Vorinostat (Selleck Chemicals, Houston, Tex., USA) in complete medium for 24 h. After 24 h, cells and conditioned media were harvested.
Total RNA was prepared using RNeasy Mini RNA kit (Qiagen, Hilden, Germany) and genomic DNA was removed using RNase-free DNase I set (Qiagen). Levels of t-PA mRNA were analyzed with real-time RT-PCR, performed on an Applied Biosystems 7500 Fast Real-Time PCR System using cDNA and Taqman reagents obtained from Applied Biosystems (Foster City, Calif., USA). Hypoxanthine phosphoribosyl transferase (HPRT, Assay number Hs99999909_m1, Applied Biosystems) was used as endogenous internal standard.
Endothelial cells in culture are known to constitutively secrete the majority of synthesized t-PA making conditioned media a suitable source for quantification of t-PA protein. Conditioned medium from cell cultures was collected, centrifuged (10 000×g, 10 min, 4° C.) to remove cell debris, transferred to fresh tubes and stored at −70° C. Concentrations of t-PA antigen in conditioned media were determined using the commercially available TriniLize t-PA antigen ELISA (Trinity Biotech, Bray, Ireland) according to manufacturer's protocol.

SMILES | t-PA production in endothelial cells [1] | annual absolute event rate lowered to ([2]; annual risk estimated approximately 7%, doses as for risk reduction (Vorinostat 10 mg, Belinostat 65 mg, Givinostat 2 mg, Panobinostat 0.5 mg, PCI-24781 2 mg, JNJ-26481585 0.2 mg, Mocetinostat 2 mg, SB939 0.4 mg, CXD101 10 mg daily)) | reduction of risk for recurrent atherothrombotic events, in addition to conventional therapy ([2]; long-term, daily oral dose: Vorinostat 10 mg, Belinostat 65 mg, Givinostat 2 mg, Panobinostat 0.5 mg, PCI-24781 2 mg, JNJ-26481585 0.2 mg, Mocetinostat 2 mg, SB939 0.4 mg, CXD101 10 mg) | reduction of risk for recurrent venous thrombotic events, in addition to conventional therapy [3] | annual event rate with treatment (reduced from 1.5) [4] [%] | reduction of annual event rate [4] [%] | increase of total amount of t-PA released (AUC) [5] | concentration completely normalizing TNF-alpha suppressed t-PA production [6] [nM] | concentration partly reversing TNF-alpha suppression of t-PA production [6] [nM] | concentration at which a significant increase of t-PA mRNA levels is seen [7] [nM] | concentration of maximal effect on t-PA expression [7] | increase of t-PA expression at maximal effect [7]
CCCC(=O)O [Butyrate] | increased | – | – | – | – | – | – | – | – | – | – | –
CCCCc1nc2cc(/C=C/C(=O)NO)ccc2n1CCN(CC)CC [SB939, (2E)-3-{2-butyl-1-[2-(diethylamino)ethyl]-1H-benzimidazol-5-yl}-N-hydroxyacrylamide] | – | approximately 5% | approximately 30% | approximately 30% | 1 | 30 | approximately 50% | 300 | 10 | 10 | around 1 μM | approximately 10 times
